In all, about 3,000 compounds went through this assay and about 45 (2%) showed an effect of 50% or more. The list shows a part of the results.
system: MOLM1 and UCSD/AML1 (averaged); experiment: cell viability relative to DMSO control (POC); higher = less growth inhibition; details: 1 µM; 72 h
Protocol: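 Primary viability screen in the 3q26 EVI1-high AML cell lines MOLM1 and UCSD/AML1, compounds at 1 uM for 72 h. ATP CellTiter-Glo read-out given as percent viable over DMSO control (POC), averaged over duplicates. This mapping covers the TimTec NDL-3000 natural derivative library, whose compounds are identified by TimTec catalogue codes (ST...).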

Row | Structure (SMILES) | cell viability [%]
1 | Oc1ccc(C2NCCc3c2[nH]c2ccccc32)cc1 (stereo not given) | 89.9
2 | Cc1ccc(NC(=O)CN2C(=O)N/C(=C/c3cc4c(cc3Cl)OCO4)C2=O)cc1 | 91.5
3 | Cc1ccc(OCCSc2ncnc3nc[nH]c23)cc1C | 99.8
4 | O=C(Nc1ccccc1F)C1=Cc2ccccc2OC1 | 91.1
5 | Cc1[nH]c2ccc(OCc3ccccc3)cc2c1CCNC(=O)c1ccnn1C | 92.8
6 | COc1cc(C(=O)Nc2ccc(CN3CCCC3)cc2)cc(OC)c1OC | 87.4
7 | CCCNC(=O)c1cc(=O)n(CC(=O)Nc2ccc(Br)cc2)c2ccccc12 | 107
8 | CO[C@@H]1CC2C3CC=C4CC(O[Si](C)(C)C(C)(C)C)CCC4(C)C3CCC2(C)C1C(C)=O (stereo not given in full) | 94.4
9 | CCCCCOc1ccc(C2=NOC(=O)/C2=C\c2ccc(OCCCC)cc2)cc1 | 99.1
10 | O=C(OC[C@@H]1O[C@@](O)(COC(=O)c2cccnc2)[C@H](OC(=O)c2cccnc2)[C@H]1OC(=O)c1cccnc1)c1cccnc1 | 90.2
11 | COC1CCCC(C)O1 (stereo not given) | 65.8
12 | COc1ccc(CNC(=O)C2Cc3ccccc3CN2S(=O)(=O)c2cccs2)cc1 (stereo not given) | 97.3
13 | Cc1ccc(NC(=O)c2cc3cc(Cl)ccc3oc2=N)cc1C | 93.6
14 | Cc1ccc(NC(=O)COc2ccc3c(=O)c(Oc4ccc(C(C)(C)C)cc4)coc3c2)cc1 | 102
15 | COc1cc(NS(=O)(=O)c2ccc(N/C=C3\C(=O)C(O)=C(C(C)C)c4cc(C)c(-c5c(C)cc6c(c5O)/C(=C/Nc5ccc(S(=O)(=O)Nc7cc(OC)nc(OC)n7)cc5)C(=O)C(O)=C6C(C)C)c(O)c43)cc2)nc(OC)n1 | 101
16 | COc1ccc(C(NC(=O)C(C)C)c2nccc3cc(OC)c(OC)cc23)cc1OC (stereo not given) | 90.8
17 | COc1cc(OC)cc(C(=O)Nc2ccccc2S(=O)(=O)N2CCCC2OC(C)=O)c1 (stereo not given) | 92.3
18 | O=c1cc(O)c2cc(Cl)ccc2o1 | 101
19 | COc1ccc2c(=O)cc(-c3ccccc3)oc2c1OC | 94
20 | Cc1ccc(-c2cc(=O)c3cc(Cl)c(C)cc3o2)cc1 | 116
21 | CCOc1ccc(/C=N/OC(=O)/C=C\c2ccccc2)cc1 | 102
22 | COc1ccc(OCc2cc(C=O)ccc2OC)cc1 | 107
23 | COc1ccc(CCNC(=O)C2CCCCC2C(=O)O)cc1OC (stereo not given) | 102
24 | Cc1ccc2c(CN3CCN(Cc4cccc(C#N)c4)CC3)cc(=O)oc2c1 | 93.6

Row | Structure (SMILES) | cell viability [%]
25 | CC(=O)OC1CCC2(C)C(CCC3(C)C2C(=O)C=C2C4CC(C)(C(=O)Nc5ccccc5O)CCC4(C)CCC23C)C1(C)C (stereo not given) | 93.9
26 | O=c1cc(-c2ccc(Br)cc2)oc2ccc(Cl)cc12 | 96
27 | CCOC(=O)c1sc(N2N=C(C)/C(=C\c3cc4c(cc3OC)OCO4)C2=O)nc1C | 97.3
28 | COC(=O)C1Cc2c([nH]c3ccccc23)CN1 (stereo not given) | 107
29 | CCOC(=O)C(Cc1c[nH]c2ccccc12)NC(=O)C(F)(F)C(F)F (stereo not given) | 94.9
30 | CCOC(=O)CCC(=O)Nc1ccc(C(=O)OCC)cc1 | 105
31 | CCCOc1ccc(NCCC(=O)c2ccc3c(c2)OCO3)cc1 | 98.9
32 | COC(=O)c1ccc2c(c1)C(=O)/C(=C/c1ccc(OCCC(C)C)cc1)O2 | 100
33 | O=C(NC1(C(F)(F)F)C(=O)Nc2c1c(=O)[nH]c(=O)n2-c1ccc(F)cc1)c1cccc(Cl)c1 (stereo not given) | 105
34 | CCC(CC)c1nc(Nc2ccc(C)c(Cl)c2)c2ccccc2n1 | 72.3
35 | Cc1cc2c(C(C)C)c(O)c(O)c(/C=N\N3CCCC3Cc3ccco3)c2c(O)c1-c1c(C)cc2c(C(C)C)c(O)c(O)c(/C=N\N3C(C)CCC3Cc3ccco3)c2c1O (stereo not given) | 91.5
36 | CC(=O)c1c(C)n(CCOc2ccc(Cl)cc2C)c2ccc(O)cc12 | 86.6
37 | COc1ccc(OC)c2c(C)cc(SCC(=O)c3ccc4c(c3)OCCO4)nc12 | 101
38 | COc1ccc(C(=O)NC(c2ccccc2)c2ccc(Cl)cc2)cc1OC (stereo not given) | 75.6
39 | O=C(NC(Cc1c[nH]c2ccccc12)C(=O)O)c1ccc(C23CC4CC(CC(C4)C2)C3)cc1 (stereo not given) | 93.7
40 | COc1ccc(OC)c(/C=C/C(=O)c2ccc3c(c2)OCO3)c1 | 86.1
41 | CCOC(=O)C(Cc1c[nH]c2ccccc12)NC(=O)c1ccc([N+](=O)[O-])cc1Cl (stereo not given) | 92.1
42 | O=C(COCC1CCCN2CCCCC12)Oc1ccccc1 (stereo not given) | 99.7
43 | CCOc1ccc(-c2nc(CSc3nc4ccccc4c(=O)[nH]3)c(C)o2)cc1 | 103
44 | CN(CCO)Cc1c(NC(=O)c2ccccc2)sc2c1CCCC2 | 85.2
45 | O=C(N/N=C/c1cc(N=Nc2cccc(C(F)(F)F)c2)ccc1O)c1ccc2c(c1)OCO2 | 21.3
46 | CCCCCCCOC(=O)COCC1CCC[N+]2(C)CCCCC12 (stereo not given) | 95.1
47 | Cc1cc2c(C(C)C)c(O)c(O)c(C=Nc3ccc(OCC(N)=O)cc3)c2c(O)c1-c1c(C)cc2c(C(C)C)c(O)c(O)c(C=Nc3ccc(OCC(N)=O)cc3)c2c1O | 109
48 | CC(C)OC(=O)C1=C(N)Oc2c(oc(CO)cc2=O)C1c1cccnc1 (stereo not given) | 106

Row | Structure (SMILES) | cell viability [%]
49 | O=c1[nH]c(NCCO)c(I)c(=O)[nH]1 | 107
50 | O=C(COc1cccc(Cl)c1)NNC(=O)c1cc2cc(Br)ccc2oc1=O | 110
51 | COc1ccc2c(CN3CCN(c4ccccc4OC)CC3)cc(=O)oc2c1 | 97.8
52 | Cc1cc(C(F)(F)F)nc2sc(C(=O)c3ccc4c(c3)OCO4)c(N)c12 | 105
53 | COc1cc(OC)cc(C(=O)c2ccc(C(=O)NC3(c4ccccc4)CC3)cc2)c1 | 101
54 | O=C(O)C1Cc2c([nH]c3ccccc23)C(C(F)(F)C(F)(F)C(F)(F)C(F)F)N1 (stereo not given) | 104
55 | CCOC(=O)c1sc(NC(=O)/C=C/c2ccccc2)c(C(=O)OCC)c1C | 96
56 | CC1CCC(C(C)C)C(OC(=O)C(=O)c2ccccc2)C1 (stereo not given) | 87.7
57 | CCOC(=O)c1c(C)n(CCOCc2ccccc2Cl)c2c1cc(O)c1ccccc12 | 92.2
58 | COCCOC(=O)c1c(C)n(CCc2cccc3ccccc23)c2c1cc(O)c1ccccc12 | 95.3
59 | Cc1oc(-c2ccc(Cl)cc2)nc1CSc1nc2c(=O)[nH]cnc2n1C | 88.3
60 | Cc1ccc2c(C)cc(=O)[nH]c2c1C | 109
61 | Cn1c(=O)c2c(nc3n2CC(C24CC5CC(CC(C5)C2)C4)=NN3Cc2ccccc2)n(C)c1=O | 95.7
62 | O=C(CSc1nc2ccccc2c(=O)[nH]1)NCc1nc2ccccc2[nH]1 | 112
63 | Cn1c(=O)c2c(nc3n(Cc4ccccn4)c(C45CC6CC(CC(C6)C4)C5)cn23)n(C)c1=O | 94.8
64 | COCCOC(=O)c1c(C)n(-c2ccc(C)cc2)c2c1cc(O)c1ccccc12 | 105
65 | COc1ccc(/C=C/C(=O)Nc2cccc(C(C)=O)c2)cc1OC | 99.6
66 | COc1cc(C(=O)Nc2ccc3c(c2)NC(=O)C(C)O3)cc(OC)c1OC (stereo not given) | 94.9
67 | Cc1ccc2c(c1)c1c(n2C(=O)c2ccnn2C(F)F)CCN(C)C1 | 101
68 | CCc1cccc(NC(=O)CSc2nc3c(=O)[nH]cnc3n2-c2ccc(C)cc2)c1 | 89.2
69 | COc1ccc(OC)c(NC(=O)CSc2nc3ccccc3c(=O)[nH]2)c1 | 91.3
70 | COc1cc(/C=C(\C#N)C(=O)OC(C)C)cc(OC)c1 | 97.3
71 | Cc1cc2c(c(O)c1-c1c(C)cc3c(c1O)/C(=C/Nc1ccc(S(N)(=O)=O)cc1)C(=O)C(O)=C3C(C)C)/C(=C/Nc1ccc(S(N)(=O)=O)cc1)C(=O)C(O)=C2C(C)C | 85.3
72 | CSCCC(NC(=O)c1cc(-c2ccccc2)oc1C)C(=O)O (stereo not given) | 85.7

A different layout for some results above.

| Row | Structure (SMILES) | cell viability [%] |
| --- | --- | --- |
| 52 | Cc1cc(C(F)(F)F)nc2sc(C(=O)c3ccc4c(c3)OCO4)c(N)c12 | 105 |
| 56 | CC1CCC(C(C)C)C(OC(=O)C(=O)c2ccccc2)C1 (stereo not given) | 87.7 |

Next part

Row | Structure (SMILES) | cell viability [%]
73 | Cc1c(Cl)cccc1N=Nc1c(C)c(C#N)c(O)n(CCO)c1=O | 98.3
74 | CC(C)OC(=O)C1=C(N)Oc2c(oc(CO)cc2=O)C1c1ccc(Cl)c(Cl)c1 (stereo not given) | 106
75 | COc1ccc(CNC(=O)CSc2ncnc3nc[nH]c23)cc1 | 101
76 | Cc1nc(C(=O)Nc2ccccc2C(=O)O)cc2c1[nH]c1ccccc12 | 91.4
77 | Cc1[nH]c2ccc(F)cc2c1CCNC(=O)c1cccc([N+](=O)[O-])c1 | 101
78 | Cc1cccc(-c2nc(CSc3nc4c(=O)[nH]c(C)nc4n3C)c(C)o2)c1 | 99.8
79 | Cc1cc2c(C(C)C)c(O)c(O)c(C=NCCOc3cccc4cccnc34)c2c(O)c1-c1c(C)cc2c(C(C)C)c(O)c(O)c(C=NCCOc3cccc4cccnc34)c2c1O | 113
80 | COc1ccc(N2C3=C(C(=O)CC(C)(C)C3)C(c3ccc(O)cc3)C3=C2CC(C)(C)CC3=O)cc1 | 85.3
81 | Cc1cc(C)c(C(=O)NCC(=O)O)c(C)c1 | 103
82 | O=C(N/N=C/C=C/c1ccc2c(c1)OCO2)c1ccncc1 | 96.8
83 | CCN(C(=O)CSc1nc2ccccc2c(=O)[nH]1)c1ccc(C(C)C)cc1 | 97
84 | COc1cc(/C=C2\N=C(c3ccc(C)cc3)NC2=O)cc(OC)c1OC | 105
85 | CCc1cccc2c(CCNC(=O)COc3ccc(F)cc3F)c(C)[nH]c12 | 92.6
86 | O=C(O)/C=C\C(=O)c1ccccc1 | 94.7
87 | O=C(OCC1CCCN2CCCCC12)c1cc2nc(-c3ccccc3)cc(-c3ccccc3)n2n1 (stereo not given) | 77.9
88 | CCOc1cc(C(=O)N2CCC3(O)CCCCC3C2c2ccc(OC)cc2OC)cc(OCC)c1OCC (stereo not given) | 99.1
89 | CCc1ccc2oc(=O)cc(CN3CCC(N4CCCCC4)CC3)c2c1 | 103
90 | Cc1ccc(-c2oc3ccccc3c(=O)c2OCC#N)cc1 | 94.9
91 | O=C(CSc1nc(-c2ccc(Cl)cc2)cn1C12CC3CC(CC(C3)C1)C2)c1ccc2c(c1)OCCO2 | 85.2
92 | COc1ccc(/C=C/C(=O)Nc2ccc(NC(C)=O)cc2)cc1OC | 95.3
93 | CCCCCC1CCC(=O)N1CCN=Cc1c(O)c(O)c(C(C)C)c2cc(C)c(-c3c(C)cc4c(C(C)C)c(O)c(O)c(C=NCCN5C(=O)CCC5CCCCC)c4c3O)c(O)c12 (stereo not given) | 86.9
94 | COC(=O)CC(NC(=O)C1CC(C)CCC1C(C)C)C(=O)OC (stereo not given) | 81.7
95 | CCc1[nH]nc2c1C(c1cc(OC)cc(OC)c1)C(C#N)=C(N)O2 (stereo not given) | 100

Individual results from above:
Value of `CC(C)OC(=O)C1=C(N)Oc2c(oc(CO)cc2=O)C1c1ccc(Cl)c(Cl)c1` (stereo not given) under cell viability [%]: 106
Value of `O=C(N/N=C/C=C/c1ccc2c(c1)OCO2)c1ccncc1` under cell viability [%]: 96.8

Some of the entries so far, in CSV form:
Row,Structure (SMILES),cell viability [%]
78,Cc1cccc(-c2nc(CSc3nc4c(=O)[nH]c(C)nc4n3C)c(C)o2)c1,99.8
79,Cc1cc2c(C(C)C)c(O)c(O)c(C=NCCOc3cccc4cccnc34)c2c(O)c1-c1c(C)cc2c(C(C)C)c(O)c(O)c(C=NCCOc3cccc4cccnc34)c2c1O,113

Source: the supplement of paper PMC11150407
